Experimental data from PubChem BioAssay AID1347076 (National Center for Advancing Translational Sciences (NCATS), 2019).
In all, about 400,000 compounds went through this assay and about 13,000 (3.2%) were called active. The inconclusive results got no clear call from the source; some entries with a clear call stand among them for comparison. Calls follow the shape of the dose curve; as a rule, active = well fitted cell-killing curve with a large enough effect; inconclusive = small, poorly fitted or top-dose-only effect, or effect the other way; inactive = flat fitted curve, though single readings scatter. Where the call is inconclusive, the potency comes from a doubtful curve fit.

Test: qHTS assay for MDR1-selective chemotherapeutics: Primary screen using the drug-selected MDR subline cells KB-V1; also: nearly all actives have a fitted effect of over 60% in size
Conditions: KB-V1 MDR cells viability, CellTiter-Glo, 72 h; activity change, negative = cytotoxicity: at 46.1 µM (top of the series)
Outline: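 Luminescent ATP read-out (CellTiter-Glo, 10 min) measures survival of drug-selected KB-V1 MDR cells after 72 h, 37 degrees C compound exposure. Medium: phenol-red-free DMEM, 10% FBS. Values from fitted concentration-response curves.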
% is scaled to controls: 0 for no effect and ±100 for the full control effect; potency is read from the fitted curve at half-maximal effect.

SMILES | Potency | activity change, negative = cytotoxicity
CC(NCCS(=O)(=O)c1ccc(Cl)cc1)c1cccc(Cl)c1 (stereo not given) | inconclusive: 23.1 µM [cytotoxic, single point] | 
O=C(Nc1nc2n(n1)C(c1ccc(Cl)cc1)CC(c1ccc(Cl)cc1)N2)c1ccco1 (stereo not given) | inconclusive: 16.4 µM [cytotoxic, partial curve] | 
Cc1cccc(C)c1NC(=O)CN(C)CC(=O)Nc1cc(Cl)ccc1C#N |  | inactive: -8.7%
CN(Cc1ccccn1)C(=O)c1cc(COc2ccc(F)cc2Cl)on1 | inconclusive: 32.6 µM [cytotoxic, single point] | 
Nc1ccc2nc(-c3ccccc3)[nH]c2c1 |  | inactive: 0.0692%
COc1ccccc1CNC(=O)c1ccc(-c2nc(CS(=O)(=O)c3ccc(C)cc3)c(C)o2)cc1 |  | inactive: -0.594%
COc1ccc(NC(=O)CN(C)C(C)C(=O)NC(=O)NC2CCCCC2)cc1 (stereo not given) | inconclusive: 9.2 µM [cytotoxic, partial curve] | 
Cc1cccc(C)c1Oc1nc(-c2ccccc2)ncc1S(=O)(=O)c1ccccc1 | inconclusive: 29.1 µM [cytotoxic, single point] | 
C=CCNC(=S)Nc1ccccc1-c1nnc2n1CCCCC2 |  | inactive: 2.4%
COC(=O)[C@H](CCSC)NC(=O)Cn1cnc(C(=O)Nc2ccc(C)c(C)c2)n1 |  | inactive: 2.16%
CCOC(=O)c1cc(S(=O)(=O)NCc2cccc(Cl)c2)[nH]n1 | inconclusive: 20.6 µM [rising, partial curve] | 
COc1ccc(C2=Nn3c(nnc3C3CCCCC3)SC2)cc1OC |  | inactive: -13%
O=C(O)/C=C\C(=O)Nc1ccc(N2CCN(c3ccc(F)cc3)CC2)cc1 | inconclusive: 29.1 µM [rising, single point] | 
Cn1c(=O)c2c(nc(NCCc3ccccc3)n2Cc2ccc(Cl)cc2)n(C)c1=O | inconclusive: 25.9 µM [cytotoxic, single point] | 
CCC(C)NC(=O)c1ccccc1-c1ccccc1C(=O)NC(C)CC (stereo not given) | inconclusive: 29.1 µM [cytotoxic, single point] | 
CCCc1nc2oc3cc(OC)ccc3c(=O)c2c(=O)n1Cc1ccco1 | inconclusive: 25.9 µM [cytotoxic, partial curve, poor fit] | 
Cc1ccc(SCC(=O)NC(=O)NCc2ccccc2)c(C)c1 | inconclusive: 29.1 µM [rising, single point] | 
CCc1cc(C(=O)Nc2ccccc2N2CCOCC2)sc1C | active: 23.1 µM | 
O=C(COC(=O)c1ccco1)NC1CCCCC1 | inconclusive: 29.1 µM [rising, single point] | 
C=C(C)CN(CC)C(=O)CCc1nnc(CCCc2ccccc2)o1 | inconclusive: 16.4 µM [cytotoxic, single point] | 

Some of these compounds in order of number of heavy atoms, ascending.
SMILES | Potency | activity change, negative = cytotoxicity
C=CCNC(=S)Nc1ccccc1-c1nnc2n1CCCCC2 |  | inactive: 2.4%
CN(Cc1ccccn1)C(=O)c1cc(COc2ccc(F)cc2Cl)on1 | inconclusive: 32.6 µM [cytotoxic, single point] | 
COc1ccccc1CNC(=O)c1ccc(-c2nc(CS(=O)(=O)c3ccc(C)cc3)c(C)o2)cc1 |  | inactive: -0.594%
